Reference: PubChem BioAssay AID504834 (National Center for Advancing Translational Sciences (NCATS), 2011)
About 22,000 (6.9%) of roughly 320,000 compounds were called active. The inconclusive results got no clear call from the source; some entries with a clear call stand among them for comparison. The call rests on the fitted dose curve; in most records, active means well fitted inhibition curve with a large enough effect; inconclusive means small, poorly fitted or top-dose-only effect, or another doubt; inactive means no such curve, though single readings can be large or run the other way. Where the call is inconclusive, the potency comes from a doubtful curve fit.
On the % scale 0 is the no-effect control and ±100 the full control effect; potency means the concentration at half of the fitted maximal effect.

Test: Primary qHTS for delayed death inhibitors of the malarial parasite plastid, 96 hour incubation
Conditions: P. falciparum luciferase reporter growth; series mostly up to 28.7 µM; activity change, negative = inhibition: at the top concentration
Procedure, shortened: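 Two-generation exposure (96 h) targets delayed-death phenotype. Reporter parasites carrying integrated firefly luciferase, in red cells at 2% hematocrit and 0.05% parasitemia final, kept at 37 C, 5% CO2; luminescence loss indicates inhibition.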
In the case of CC(C)n1ncc2c(C(=O)NCc3cccnc3)cc(C3CC3)nc21, the Potency is reported as inconclusive: 11.7 µM [inhibitor, partial curve, poor fit].
In the case of CCCCCC(=O)N1CC2(CC)CN(C(=O)CCCCC)CC(CC)(C1)C2=O, the Potency is reported as inconclusive: 18.5 µM [inhibitor, single point].
In the case of O=C(c1ccc(S(=O)(=O)N2CCOCC2)cc1)N1CCN(c2ccccn2)CC1, the Potency is reported as inconclusive: 14.7 µM [inhibitor, partial curve, poor fit].
For COc1cccc(CCNC(=O)CCCC(=O)c2ccccc2)c1, the Potency was inconclusive: 10.4 µM [inhibitor, single point].
In the case of C[C@@]12CCC=C[C@H]1[C@H](c1ccc3ccccc3c1Br)N(Cc1ccccc1)C2=O, the Potency is reported as active: 10.4 µM.
For O=C(N/N=C/c1ccncc1)c1ccc(OCc2ccccc2)cc1, the Potency was inconclusive: 10.4 µM [inhibitor, single point].
In the case of O=C(COC(=O)c1cc([N+](=O)[O-])ccc1Cl)NC1CCCC1, the “activity change, negative = inhibition” value is reported as inactive: 12.6%.
For CCCC(=O)Oc1ccccc1C1SCc2cc(C)c(C)cc2CS1, the Potency was inconclusive: 0.415 µM [inhibitor, partial curve, poor fit].
With S=C(NC1CCCCC1)N(CCc1ccccc1)CCc1ccccc1 the Potency was inconclusive: 10.4 µM [inhibitor, single point].
In the case of Cc1ccc2nc(-c3cccc(-c4cccc(Cl)c4)c3)c(NCc3ccccc3)n2c1, the Potency is reported as active: 10.4 µM.
With C/C(Cl)=C\Cn1c(N2CCCC2)nc2c1c(=O)n(C)c(=O)n2C the Potency was inconclusive: 1.17 µM [inhibitor, full curve].
In the case of Cc1cc(C)c2cc(C#N)c(N3CCCC3)nc2c1, the Potency is reported as active: 10.4 µM.
For Cc1ccccc1Cc1n[nH]c(=S)n1N, the Potency was inconclusive: 18.5 µM [inhibitor, single point].
For CCc1nnc(NC(=O)CCn2cnc3ccccc3c2=O)s1, the “activity change, negative = inhibition” value was inactive: -17.7%.
For CCN1CCN(CCOc2ccccc2-c2ccccc2)CC1, the Potency was inconclusive: 14.7 µM [inhibitor, single point].
For C1CCC(OCCN2CCN(CCOC3CCCCC3)CC2)CC1, the “activity change, negative = inhibition” value was inactive: -1%.
In the case of CNC(=S)N1C2CCC1CC(NC(=O)NC13CC4CC(CC(C4)C1)C3)C2 (stereo unspecified), the Potency is reported as inconclusive: 4.15 µM [inhibitor, partial curve].
With CC(C)CCNC(=O)c1cn(C)c2ccc(S(=O)(=O)N3CCCC3)cc2c1=O the Potency was inconclusive: 11.7 µM [inhibitor, single point].
In the case of O=C(COc1ccccc1Cl)NC(=O)NC1CCCC1, the Potency is reported as inconclusive: 1.85 µM [inhibitor, full curve, poor fit].
With Cc1nnc(SCC(=O)NC2CC2)n1-c1ccccc1 the Potency was active: 4.65 µM.
With CC12CCC(=O)N1C(C(=O)O)Cc1c2[nH]c2ccccc12 (stereo unspecified) the Potency was inconclusive: 5.86 µM [inhibitor, partial curve, poor fit].
With CC1(C)Cc2c(cnn2-c2ccc(F)cc2)C(NC(=O)CCC(F)(F)F)C1 (stereo unspecified) the Potency was inconclusive: 13.1 µM [inhibitor, partial curve].
For COc1ccc(NC(=O)c2ccccc2NC(=O)c2ccco2)c(OC)c1, the “activity change, negative = inhibition” value was inactive: -11.9%.
For COc1cc(OC)cc(C(=O)Nc2ccc(N3CCN(C(=O)c4cccs4)CC3)cc2)c1, the “activity change, negative = inhibition” value was inactive: 8.22%.
In the case of CCn1ccc2cc(OC)ccc2c1=S, the “activity change, negative = inhibition” value is reported as inactive: 82.9%.
For COc1ccc(NC(=O)CC(C)CC(=O)NCc2ccc(F)cc2)c(OC)c1 (stereo unspecified), the “activity change, negative = inhibition” value was inactive: -5.54%.
For CCOC(=O)N1CCN(C(=O)COc2cc(=O)n(C)c3ccccc23)CC1, the Potency was inconclusive: 0.233 µM [inhibitor, full curve, poor fit].
For CCOC(=O)C1(Cc2ccc(Cl)cc2)CCN(Cc2ccon2)CC1, the Potency was inconclusive: 20.8 µM [inhibitor, single point].
With CCOc1cc(CN2CCN(C(=O)c3cccc4ccccc34)CC2)ccc1OC the Potency was inconclusive: 11.7 µM [inhibitor, single point].
In the case of CC(CCc1ccccc1)NC(=O)CN1C(=O)NC2(CCCCC2C)C1=O (stereo unspecified), the “activity change, negative = inhibition” value is reported as inactive: -14.3%.
With Cc1cc(OCc2ccc(C(=O)NN=C3CCCC3)cc2)ccc1Cl the “activity change, negative = inhibition” value was inactive: 0%.
With Cc1ccc2c(c1)c(=O)c1c3n2CCN(CC2CO2)C3CC1 (stereo unspecified) the Potency was inconclusive: 18.5 µM [inhibitor, single point].
For Cc1cnc(CN(C)C(=O)c2ccc3oc(Cc4ccccc4)nc3c2)[nH]1, the Potency was active: 4.65 µM.
With O=C1CCCC2=C1C1O[C@](CCCCN3C(=O)c4ccccc4C3=O)(Cc3ccccc31)O2 the Potency was inconclusive: 0.019 µM [inhibitor, full curve, poor fit].
With O=C(Nc1ccccc1)N1CCN(CCc2ccccc2)CC1 the “activity change, negative = inhibition” value was inactive: 0%.
In the case of CCN1CCN(C(CNS(=O)(=O)c2ccc(Br)cc2)c2cccnc2)CC1 (stereo unspecified), the Potency is reported as inconclusive: 13.1 µM [inhibitor, single point].
With CCCCC(=O)N(Cc1nc2sc(C)c(C)c2c(=O)[nH]1)C1CCCC1 the “activity change, negative = inhibition” value was inactive: 44%.
In the case of Cc1cccc(N2CC(C)Cn3c2nc2c3c(=O)[nH]c(=O)n2C)c1 (stereo unspecified), the “activity change, negative = inhibition” value is reported as inactive: 0.524%.
In the case of Cc1ccccc1CN1CCN(Cc2ccccc2)CC1, the “activity change, negative = inhibition” value is reported as inactive: 12.3%.
With CNS(=O)(=O)c1ccc(NC(=O)c2cnn3c(C(F)F)cc(-c4ccccc4)nc23)cc1 the Potency was inconclusive: 18.5 µM [inhibitor, single point].
For CC(C)(C)C(=O)Nc1ccc(N2CCN(S(C)(=O)=O)CC2)cc1, the Potency was inconclusive: 4.65 µM [inhibitor, full curve, poor fit].
With COc1cc2c(cc1OC)C(c1ccc(Cl)cc1)CC(=O)N2 (stereo unspecified) the Potency was inconclusive: 13.1 µM [inhibitor, single point].
For N#CCC(=O)Nc1ccc(C(=O)OCC(=O)N(Cc2ccccc2)C2CCS(=O)(=O)C2)cc1 (stereo unspecified), the Potency was inconclusive: 18.5 µM [inhibitor, single point].
For COc1cc(NS(=O)(=O)c2c(C)oc3c(F)c(F)c(F)c(F)c23)cc(OC)c1OC, the Potency was inconclusive: 18.5 µM [inhibitor, single point].
With Cn1c(=O)c(=O)n(C)c2cc(N3CCCC3)c(NS(=O)(=O)c3ccc(F)cc3)cc21 the Potency was inconclusive: 13.1 µM [inhibitor, partial curve].
For CC1CC=C2C(C#N)=C(N)C(C#N)(C#N)C(c3cccs3)C2C1 (stereo unspecified), the “activity change, negative = inhibition” value was inactive: 18.9%.
With Cc1ccc(NC(=O)c2snc3ccc(Cl)cc23)cc1C the “activity change, negative = inhibition” value was inactive: 0%.
In the case of CCOC(=O)C1(CCOC)CCN(CC(C)Cc2ccc3c(c2)OCO3)CC1 (stereo unspecified), the “activity change, negative = inhibition” value is reported as inactive: -28.6%.
For CCOC(=O)N1CCN(c2ccccc2OC)CC1, the “activity change, negative = inhibition” value was inactive: 17.1%.
For Cc1cc(NC(=O)c2cccs2)ncc1NC(=O)c1cccc(F)c1, the Potency was active: 5.22 µM.
For O=C(/C=C/c1ccc(Br)cc1)NC(=O)c1ccccc1O, the Potency was inconclusive: 18.5 µM [inhibitor, single point].
In the case of Cc1nc(COc2ccc(C(=O)NCc3ccccc3CN3CCCCC3)cc2)cs1, the Potency is reported as inconclusive: 2.33 µM [inhibitor, single point].
For CCC1Cc2c(nc(N)c3c(N)nc(N4CCOCC4)c(C#N)c23)O1 (stereo unspecified), the Potency was inconclusive: 11.7 µM [inhibitor, partial curve].
In the case of Cc1ccc(NC(=O)CCC(=O)N2CCN(S(=O)(=O)c3ccc(C)cc3)CC2)cc1, the Potency is reported as inconclusive: 0.657 µM [inhibitor, full curve, poor fit].
In the case of Cc1ccc(NC(=S)N2CCN(c3ccccn3)CC2)c(C)c1, the Potency is reported as inconclusive: 18.5 µM [inhibitor, single point].
With Cc1cc(C)n(CC(O)CN(c2cccc([N+](=O)[O-])c2)S(=O)(=O)c2ccccc2)n1 (stereo unspecified) the Potency was inconclusive: 18.5 µM [inhibitor, single point].
In the case of COc1ccc2c(=O)c(-c3ccc(OC)c(OC)c3)coc2c1, the “activity change, negative = inhibition” value is reported as inactive: 217%.
For O=C(Cc1ccc(Cl)cc1)Nc1ncccn1, the “activity change, negative = inhibition” value was inactive: 8.09%.
In the case of CN(C)/C=C(/C(=O)c1ccc(Cl)cc1)S(=O)(=O)c1ccc(Cl)cc1, the “activity change, negative = inhibition” value is reported as inactive: -0.965%.
For Cc1nnc(SCc2ccc(C(=O)Nc3cc(Cl)ccc3C)cc2)s1, the Potency was inconclusive: 9.28 µM [inhibitor, partial curve, poor fit].
In the case of O=C(N/N=C/c1ccc([N+](=O)[O-])o1)c1cn(-c2ccccc2)nc1-c1ccc(Cl)cc1, the Potency is reported as inconclusive: 2.33 µM [inhibitor, single point].
For COc1ccc(C(=O)NC2CC2)cc1OC1CCN(C/C=C/c2ccccc2)CC1, the Potency was active: 11.7 µM.
For COC(=O)C1=C(c2ccc(F)cc2OCc2ccccc2)C[C@@H]2CC[C@H]1N2C(=O)NC(C)C, the Potency was inconclusive: 7.38 µM [inhibitor, partial curve].
For Cc1ccc(S(=O)(=O)N2CCN(C(=O)C3CC(=O)N(c4ccc5c(c4)OCCO5)C3)CC2)cc1 (stereo unspecified), the Potency was inconclusive: 18.5 µM [inhibitor, single point].
With O=C(COc1ccccc1F)N1c2ccccc2CCc2ccccc21 the Potency was inconclusive: 11.7 µM [inhibitor, single point].
With CCOc1ccc(S(=O)(=O)NN=C2CCN(C(C)=O)CC2)cc1 the “activity change, negative = inhibition” value was inactive: 0.64%.
With CCOC(=O)C1=C(C)OC(N)=C(C#N)C1c1cncc(-c2ccc(F)cc2)c1 (stereo unspecified) the Potency was inconclusive: 14.7 µM [inhibitor, single point].
In the case of CCC(C)NCCOCCOc1ccc(C)cc1Br (stereo unspecified), the Potency is reported as inconclusive: 0.147 µM [inhibitor, full curve, poor fit].
In the case of CCn1c(SCC(=O)NC2CCCCC2)nc2ccccc2c1=O, the Potency is reported as active: 11.7 µM.
In the case of COc1cc(-c2ccc(NC(=O)NC3CC3)c(OC)c2)ccc1NC(=O)NC1CC1, the Potency is reported as inconclusive: 10.4 µM [inhibitor, single point].
